Results as given in PMC4658663.
These are yes or no findings as the source states them, for the method shown. Binding seen in cells or lysates may run through a third protein. A yes stands for co-enrichment or nearness to the bait. Other partners may have been found. For some of these results: No binding means not detected with the bait. For some of these results: Where a sequence is shown, tags or fusion partners need not be part of it.

The chains behind the UniProt entries cited, without tags or fusion partners. Where a name states a change or a piece, a line headed by the entry shows the natural chain unless it says otherwise.
UniProt P32745: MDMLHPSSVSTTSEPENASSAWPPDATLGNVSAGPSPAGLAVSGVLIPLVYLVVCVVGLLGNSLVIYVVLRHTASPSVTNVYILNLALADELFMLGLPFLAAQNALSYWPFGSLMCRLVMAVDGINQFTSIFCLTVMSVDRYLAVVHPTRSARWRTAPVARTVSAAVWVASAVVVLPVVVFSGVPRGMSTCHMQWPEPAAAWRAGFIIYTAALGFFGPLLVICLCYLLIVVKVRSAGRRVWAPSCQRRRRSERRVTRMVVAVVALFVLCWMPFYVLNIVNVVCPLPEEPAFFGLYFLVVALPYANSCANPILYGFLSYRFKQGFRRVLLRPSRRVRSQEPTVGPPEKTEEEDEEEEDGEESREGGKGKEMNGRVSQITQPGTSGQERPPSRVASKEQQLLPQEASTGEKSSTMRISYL
UniProt Q9H244: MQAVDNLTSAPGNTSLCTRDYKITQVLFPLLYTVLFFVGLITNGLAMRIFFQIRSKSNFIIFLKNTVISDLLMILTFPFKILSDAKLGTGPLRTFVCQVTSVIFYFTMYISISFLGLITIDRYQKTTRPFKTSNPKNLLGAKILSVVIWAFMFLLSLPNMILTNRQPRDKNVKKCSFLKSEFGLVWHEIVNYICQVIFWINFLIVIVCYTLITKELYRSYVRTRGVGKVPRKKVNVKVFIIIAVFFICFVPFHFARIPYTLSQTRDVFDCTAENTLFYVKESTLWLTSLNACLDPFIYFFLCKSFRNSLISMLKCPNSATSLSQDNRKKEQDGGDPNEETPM
UniProt Q14160: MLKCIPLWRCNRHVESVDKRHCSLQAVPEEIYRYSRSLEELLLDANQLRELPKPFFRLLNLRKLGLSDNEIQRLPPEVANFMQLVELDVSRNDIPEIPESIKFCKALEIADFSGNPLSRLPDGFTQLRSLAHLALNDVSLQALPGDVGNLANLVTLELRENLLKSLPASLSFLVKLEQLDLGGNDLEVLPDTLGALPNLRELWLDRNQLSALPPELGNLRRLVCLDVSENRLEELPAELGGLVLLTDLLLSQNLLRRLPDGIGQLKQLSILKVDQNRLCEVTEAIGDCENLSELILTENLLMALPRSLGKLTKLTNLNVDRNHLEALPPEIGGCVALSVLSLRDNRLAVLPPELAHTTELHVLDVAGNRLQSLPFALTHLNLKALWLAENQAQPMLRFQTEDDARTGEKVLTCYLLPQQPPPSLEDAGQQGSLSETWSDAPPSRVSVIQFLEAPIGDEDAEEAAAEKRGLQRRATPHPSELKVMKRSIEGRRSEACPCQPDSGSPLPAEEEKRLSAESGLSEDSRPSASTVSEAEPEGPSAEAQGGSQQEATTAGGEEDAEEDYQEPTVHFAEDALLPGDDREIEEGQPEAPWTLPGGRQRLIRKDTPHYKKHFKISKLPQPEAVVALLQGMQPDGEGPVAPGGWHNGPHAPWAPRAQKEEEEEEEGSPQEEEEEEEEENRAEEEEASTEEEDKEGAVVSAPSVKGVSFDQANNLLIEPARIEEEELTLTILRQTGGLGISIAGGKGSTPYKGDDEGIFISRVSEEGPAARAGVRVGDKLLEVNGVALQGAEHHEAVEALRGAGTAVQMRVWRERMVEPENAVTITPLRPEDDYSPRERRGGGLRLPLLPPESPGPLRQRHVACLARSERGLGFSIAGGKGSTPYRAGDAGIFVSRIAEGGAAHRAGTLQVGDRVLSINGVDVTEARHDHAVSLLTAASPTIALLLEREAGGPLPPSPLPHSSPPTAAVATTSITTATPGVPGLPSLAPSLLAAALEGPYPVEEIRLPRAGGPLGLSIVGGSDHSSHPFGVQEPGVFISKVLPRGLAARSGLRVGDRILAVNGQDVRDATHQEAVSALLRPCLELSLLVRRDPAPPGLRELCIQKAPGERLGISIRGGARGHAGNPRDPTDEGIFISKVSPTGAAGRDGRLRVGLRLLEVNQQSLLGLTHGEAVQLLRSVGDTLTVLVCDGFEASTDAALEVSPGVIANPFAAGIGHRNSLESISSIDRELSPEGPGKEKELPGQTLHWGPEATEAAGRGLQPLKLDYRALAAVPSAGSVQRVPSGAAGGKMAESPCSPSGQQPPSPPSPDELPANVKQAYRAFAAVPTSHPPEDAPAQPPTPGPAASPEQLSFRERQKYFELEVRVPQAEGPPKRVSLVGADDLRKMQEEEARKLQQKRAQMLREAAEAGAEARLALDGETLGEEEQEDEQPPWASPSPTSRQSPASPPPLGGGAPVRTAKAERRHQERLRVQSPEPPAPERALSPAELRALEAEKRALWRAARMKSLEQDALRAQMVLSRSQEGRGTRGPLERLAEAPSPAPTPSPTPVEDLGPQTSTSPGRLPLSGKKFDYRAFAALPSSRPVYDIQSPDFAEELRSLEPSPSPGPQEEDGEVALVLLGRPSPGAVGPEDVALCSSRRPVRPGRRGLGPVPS
UniProt Q13425: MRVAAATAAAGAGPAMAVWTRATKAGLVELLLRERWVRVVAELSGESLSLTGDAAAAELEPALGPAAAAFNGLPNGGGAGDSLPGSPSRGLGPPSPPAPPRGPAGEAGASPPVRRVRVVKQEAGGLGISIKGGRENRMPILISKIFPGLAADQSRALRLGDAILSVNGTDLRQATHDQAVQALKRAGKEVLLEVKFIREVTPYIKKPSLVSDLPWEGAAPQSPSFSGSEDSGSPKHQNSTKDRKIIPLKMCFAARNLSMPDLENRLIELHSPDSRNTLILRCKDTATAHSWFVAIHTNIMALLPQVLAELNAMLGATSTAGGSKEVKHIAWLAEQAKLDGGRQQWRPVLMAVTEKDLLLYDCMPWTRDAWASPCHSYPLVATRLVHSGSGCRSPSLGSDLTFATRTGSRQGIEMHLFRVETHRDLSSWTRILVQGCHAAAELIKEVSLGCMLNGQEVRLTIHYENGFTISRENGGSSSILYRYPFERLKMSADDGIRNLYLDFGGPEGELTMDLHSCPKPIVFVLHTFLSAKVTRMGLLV
UniProt P46939: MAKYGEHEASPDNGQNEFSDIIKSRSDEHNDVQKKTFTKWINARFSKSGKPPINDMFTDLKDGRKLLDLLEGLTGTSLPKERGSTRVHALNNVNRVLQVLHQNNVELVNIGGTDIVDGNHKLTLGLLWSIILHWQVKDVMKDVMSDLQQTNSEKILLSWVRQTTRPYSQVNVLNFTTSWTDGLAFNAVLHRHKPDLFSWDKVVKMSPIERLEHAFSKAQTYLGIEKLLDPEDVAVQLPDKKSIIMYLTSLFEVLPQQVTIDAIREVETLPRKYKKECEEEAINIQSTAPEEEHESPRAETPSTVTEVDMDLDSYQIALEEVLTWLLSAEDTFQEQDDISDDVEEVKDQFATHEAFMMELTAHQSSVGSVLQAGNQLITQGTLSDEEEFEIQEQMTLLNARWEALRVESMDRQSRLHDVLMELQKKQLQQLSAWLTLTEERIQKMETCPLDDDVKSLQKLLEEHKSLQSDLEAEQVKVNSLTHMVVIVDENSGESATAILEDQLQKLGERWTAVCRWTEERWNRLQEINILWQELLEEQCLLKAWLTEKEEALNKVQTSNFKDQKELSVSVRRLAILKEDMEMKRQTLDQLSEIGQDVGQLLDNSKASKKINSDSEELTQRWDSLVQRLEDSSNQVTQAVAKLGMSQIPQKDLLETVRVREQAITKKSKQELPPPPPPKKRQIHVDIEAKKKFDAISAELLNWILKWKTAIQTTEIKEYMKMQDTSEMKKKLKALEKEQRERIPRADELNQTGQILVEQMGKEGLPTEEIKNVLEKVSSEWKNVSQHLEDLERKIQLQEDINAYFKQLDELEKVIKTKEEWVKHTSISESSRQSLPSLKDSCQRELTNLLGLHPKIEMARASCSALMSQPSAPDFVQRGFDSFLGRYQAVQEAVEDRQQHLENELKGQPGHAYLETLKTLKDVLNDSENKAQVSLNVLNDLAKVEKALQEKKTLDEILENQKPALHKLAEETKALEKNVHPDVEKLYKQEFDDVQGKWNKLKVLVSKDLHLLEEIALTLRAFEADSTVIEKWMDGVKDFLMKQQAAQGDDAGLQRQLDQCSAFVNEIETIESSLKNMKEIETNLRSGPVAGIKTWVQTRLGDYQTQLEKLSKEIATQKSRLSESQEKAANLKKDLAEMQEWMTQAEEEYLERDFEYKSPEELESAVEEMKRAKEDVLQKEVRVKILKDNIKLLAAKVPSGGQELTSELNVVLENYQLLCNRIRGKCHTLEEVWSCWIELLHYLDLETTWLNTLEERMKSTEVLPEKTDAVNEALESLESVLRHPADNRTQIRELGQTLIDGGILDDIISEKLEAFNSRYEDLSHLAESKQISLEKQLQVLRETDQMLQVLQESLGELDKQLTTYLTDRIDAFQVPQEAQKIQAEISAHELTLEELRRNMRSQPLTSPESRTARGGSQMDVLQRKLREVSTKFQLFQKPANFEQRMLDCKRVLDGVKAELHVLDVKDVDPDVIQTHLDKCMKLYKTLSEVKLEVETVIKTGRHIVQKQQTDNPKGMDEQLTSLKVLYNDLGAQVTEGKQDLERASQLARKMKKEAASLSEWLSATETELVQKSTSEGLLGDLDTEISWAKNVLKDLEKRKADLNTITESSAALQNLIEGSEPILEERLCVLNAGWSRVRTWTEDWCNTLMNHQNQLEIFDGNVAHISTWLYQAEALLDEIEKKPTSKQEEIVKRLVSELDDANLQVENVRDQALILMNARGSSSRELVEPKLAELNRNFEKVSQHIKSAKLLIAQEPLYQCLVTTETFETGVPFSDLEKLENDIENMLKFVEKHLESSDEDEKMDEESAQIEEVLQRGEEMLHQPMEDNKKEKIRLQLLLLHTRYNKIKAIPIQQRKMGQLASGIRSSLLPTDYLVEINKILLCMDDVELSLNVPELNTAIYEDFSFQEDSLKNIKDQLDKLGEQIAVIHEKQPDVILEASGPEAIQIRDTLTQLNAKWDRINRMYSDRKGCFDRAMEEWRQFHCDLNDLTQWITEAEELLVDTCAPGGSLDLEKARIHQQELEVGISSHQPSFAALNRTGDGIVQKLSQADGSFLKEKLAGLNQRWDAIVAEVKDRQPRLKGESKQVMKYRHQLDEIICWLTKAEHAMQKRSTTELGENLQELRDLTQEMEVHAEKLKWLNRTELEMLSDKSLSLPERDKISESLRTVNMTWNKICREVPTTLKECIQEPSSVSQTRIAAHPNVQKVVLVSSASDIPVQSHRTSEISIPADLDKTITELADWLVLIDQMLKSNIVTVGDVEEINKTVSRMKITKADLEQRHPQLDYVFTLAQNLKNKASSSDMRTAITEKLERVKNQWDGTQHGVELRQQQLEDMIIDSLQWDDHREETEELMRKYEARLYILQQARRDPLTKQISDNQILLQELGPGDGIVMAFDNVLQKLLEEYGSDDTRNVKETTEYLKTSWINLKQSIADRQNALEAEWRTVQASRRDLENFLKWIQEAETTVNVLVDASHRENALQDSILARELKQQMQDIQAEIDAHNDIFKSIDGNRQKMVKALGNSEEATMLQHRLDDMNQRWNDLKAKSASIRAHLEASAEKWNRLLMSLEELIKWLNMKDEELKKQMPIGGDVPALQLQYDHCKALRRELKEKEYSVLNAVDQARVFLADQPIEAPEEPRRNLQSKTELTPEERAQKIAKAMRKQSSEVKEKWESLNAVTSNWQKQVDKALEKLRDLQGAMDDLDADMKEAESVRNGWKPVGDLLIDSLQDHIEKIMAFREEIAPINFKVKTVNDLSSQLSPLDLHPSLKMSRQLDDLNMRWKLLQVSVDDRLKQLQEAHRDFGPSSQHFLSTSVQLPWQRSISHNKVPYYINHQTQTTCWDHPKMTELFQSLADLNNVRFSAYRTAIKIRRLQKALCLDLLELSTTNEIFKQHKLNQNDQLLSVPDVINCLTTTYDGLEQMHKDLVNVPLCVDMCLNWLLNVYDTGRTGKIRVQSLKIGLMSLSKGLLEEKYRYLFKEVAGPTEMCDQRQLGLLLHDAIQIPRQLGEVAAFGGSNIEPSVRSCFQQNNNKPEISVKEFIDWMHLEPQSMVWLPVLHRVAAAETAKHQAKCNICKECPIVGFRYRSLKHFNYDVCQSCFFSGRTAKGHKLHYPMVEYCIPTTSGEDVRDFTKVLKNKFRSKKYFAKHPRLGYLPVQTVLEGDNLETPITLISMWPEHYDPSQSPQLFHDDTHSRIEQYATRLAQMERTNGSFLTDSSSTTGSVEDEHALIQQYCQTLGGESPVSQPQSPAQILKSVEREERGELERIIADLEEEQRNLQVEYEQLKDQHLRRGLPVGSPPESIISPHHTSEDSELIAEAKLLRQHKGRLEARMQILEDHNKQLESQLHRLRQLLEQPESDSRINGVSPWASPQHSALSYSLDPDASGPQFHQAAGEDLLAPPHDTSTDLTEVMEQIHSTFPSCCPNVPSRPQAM

T1: GALR1 (galanin type I receptor), TAP-tagged (human) (UniProt P47211)
T1 sequence: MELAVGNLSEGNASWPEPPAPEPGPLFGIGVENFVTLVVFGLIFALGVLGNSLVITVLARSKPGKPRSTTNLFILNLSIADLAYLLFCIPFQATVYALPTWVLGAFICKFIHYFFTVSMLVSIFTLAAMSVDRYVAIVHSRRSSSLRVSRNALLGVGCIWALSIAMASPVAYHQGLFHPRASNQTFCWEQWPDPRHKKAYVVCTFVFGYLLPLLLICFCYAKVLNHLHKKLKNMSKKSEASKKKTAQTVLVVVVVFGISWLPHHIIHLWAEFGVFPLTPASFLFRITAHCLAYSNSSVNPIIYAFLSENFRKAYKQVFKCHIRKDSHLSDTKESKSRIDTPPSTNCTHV

T2: C3AR1 (C3a anaphylatoxin chemotactic receptor), TAP-tagged (human) (UniProt Q16581)
T2 sequence: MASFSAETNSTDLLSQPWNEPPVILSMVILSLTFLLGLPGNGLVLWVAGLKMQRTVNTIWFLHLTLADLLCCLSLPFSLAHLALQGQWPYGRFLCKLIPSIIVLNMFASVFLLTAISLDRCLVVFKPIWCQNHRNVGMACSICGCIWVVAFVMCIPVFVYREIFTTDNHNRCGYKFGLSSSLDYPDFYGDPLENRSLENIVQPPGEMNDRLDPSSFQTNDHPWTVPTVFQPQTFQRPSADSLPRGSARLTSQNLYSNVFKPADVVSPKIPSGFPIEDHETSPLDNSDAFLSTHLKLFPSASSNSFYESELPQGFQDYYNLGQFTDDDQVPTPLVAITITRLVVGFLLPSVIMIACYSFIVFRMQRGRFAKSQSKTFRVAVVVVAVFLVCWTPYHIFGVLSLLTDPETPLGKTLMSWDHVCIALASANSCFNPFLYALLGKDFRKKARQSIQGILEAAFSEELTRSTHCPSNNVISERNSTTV

B1: SNTB1 (protein, UniProt Q13884 1-538)
chain: MAVAAAAAAAGPAGAGGGRAQRSGLLEVLVRDRWHKVLVNLSEDALVLSSEEGAAAYNGIGTATNGSFCRGAGAGHPGAGGAQPPDSPAGVRTAFTDLPEQVPESISNQKRGVKVLKQELGGLGISIKGGKENKMPILISKIFKGLAADQTQALYVGDAILSVNGADLRDATHDEAVQALKRAGKEVLLEVKYMREATPYVKKGSPVSEIGWETPPPESPRLGGSTSDPPSSQSFSFHRDRKSIPLKMCYVTRSMALADPENRQLEIHSPDAKHTVILRSKDSATAQAWFSAIHSNVNDLLTRVIAEVREQLGKTGIAGSREIRHLGWLAEKVPGESKKQWKPALVVLTEKDLLIYDSMPRRKEAWFSPVHTYPLLATRLVHSGPGKGSPQAGVDLSFATRTGTRQGIETHLFRAETSRDLSHWTRSIVQGCHNSAELIAEISTACTYKNQECRLTIHYENGFSITTEPQEGAFPKTIIQSPYEKLKMSSDDGIRMLYLDFGGKDGEIQLDLHSCPKPIVFIIHSFLSAKITRLGLVA
B2: α-catulin (CTNNAL1) (protein, UniProt Q9UBT7 1-734)
chain: MAASPGPAGVGGAGAVYGSGSSGFALDSGLEIKTRSVEQTLLPLVSQITTLINHKDNTKKSDKTLQAIQRVGQAVNLAVGRFVKVGEAIANENWDLKEEINIACIEAKQAGETIAALTDITNLNHLESDGQITIFTDKTGVIKAARLLLSSVTKVLLLADRVVIKQIITSRNKVLATMERLEKVNSFQEFVQIFSQFGNEMVEFAHLSGDRQNDLKDEKKKAKMAAARAVLEKCTMMLLTASKTCLRHPNCESAHKNKEGVFDRMKVALDKVIEIVTDCKPNGETDISSISIFTGIKEFKMNIEALRENLYFQSKENLSVTLEVILERMEDFTDSAYTSHEHRERILELSTQARMELQQLISVWIQAQSKKTKSIAEELELSILKISHSLNELKKELHSTATQLAADLLKYHADHVVLKALKLTGVEGNLEALAEYACKLSEQKEQLVETCRLLRHISGTEPLEITCIHAEETFQVTGQQIISAAETLTLHPSSKIAKENLDVFCEAWESQISDMSTLLREINDVFEGRRGEKYGYLSLPKPMKNNANLKSLKPDKPDSEEQAKIAKLGLKLGLLTSDADCEIEKWEDQENEIVQYGRNMSSMAYSLYLFTRGEGPLKTSQDLIHQLEVFAAEGLKLTSSVQAFSKQLKDDDKLMLLLEINKLIPLCHQLQTVTKTSLQNKVFLKVDKCITKTRSMMALLVQLLSLCYKLLKKLQMENNGWVSVTNKDTMDSKT
B3: dystrobrevin-A (DTNA) (protein, UniProt Q9Y4J8 1-743)
chain: MIEDSGKRGNTMAERRQLFAEMRAQDLDRIRLSTYRTACKLRFVQKKCNLHLVDIWNVIEALRENALNNLDPNTELNVSRLEAVLSTIFYQLNKRMPTTHQIHVEQSISLLLNFLLAAFDPEGHGKISVFAVKMALATLCGGKIMDKLRYIFSMISDSSGVMVYGRYDQFLREVLKLPTAVFEGPSFGYTEQSARSCFSQQKKVTLNGFLDTLMSDPPPQCLVWLPLLHRLANVENVFHPVECSYCHSESMMGFRYRCQQCHNYQLCQDCFWRGHAGGSHSNQHQMKEYTSWKSPAKKLTNALSKSLSCASSREPLHPMFPDQPEKPLNLAHIVDTWPPRPVTSMNDTLFSHSVPSSGSPFITRSSPPKDSEVEQNKLLARAAPAFLKGKGIQYSLNVADRLADEHVLIGLYVNMLRNNPSCMLESSNRLDEEHRLIARYAARLAAESSSSQPPQQRSAPDISFTIDANKQQRQLIAELENKNREILQEIQRLRLEHEQASQPTPEKAQQNPTLLAELRLLRQRKDELEQRMSALQESRRELMVQLEGLMKLLKTQGAGSPRSSPSHTISRPIPMPIRSASACSTPTHTPQDSLTGVGGDVQEAFAQSSRRNLRNDLLVAADSITNTMSSLVKELNSEVGSETESNVDSEFARTQFEDLVPSPTSEKAFLAQIHARKPGYIHSGATTSTMRGDMVTEDADPYVQPEDENYENDSVRQLENELQMEEYLKQKLQDEAYQVSLQG

Columns and labels:
[1] = target: T1, GALR1 (galanin type I receptor), TAP-tagged (human); test: affinity purification with mass spectrometry; TAP/MS; TAP-tagged bait transfected alone (or with empty vector) in HEK293T cells; TEV cleavage omitted; eluates on Velos-Pro Orbitrap Elite; protein FDR 2.5%
[2] = target: SSTR3 (somatostatin receptor 3), TAP-tagged (human) (UniProt P32745); test: as above
[3] = target: CXCR2 (chemokine receptor), TAP-tagged (human) (UniProt P25025); test: as above
[4] = target: SSTR1 (somatostatin receptor 1), TAP-tagged (human) (UniProt P30872); test: as above
[5] = target: T2, C3AR1 (C3a anaphylatoxin chemotactic receptor), TAP-tagged (human); test: as above
[6] = target: P2RY12 (P2Y purinergic receptor 12), TAP-tagged (human) (UniProt Q9H244); test: as above
[7] = target: TAP–ADRA1D (human) (UniProt P25100); test: affinity purification with mass spectrometry; TAP/MS; TAP–ADRA1D transfected in A375 cells
[8] = target: TAP–ADRA1D (human) (UniProt P25100); test: affinity purification with mass spectrometry; TAP/MS; TAP–ADRA1D transfected in A549 cells
[9] = target: TAP–ADRA1D (human) (UniProt P25100); test: affinity purification with mass spectrometry; TAP/MS; TAP–ADRA1D transfected in MCF-7 cells
[10] = target: TAP–ADRA1D (human) (UniProt P25100); test: affinity purification with mass spectrometry; TAP/MS; TAP–ADRA1D transfected in HeLa cells
[11] = target: TAP–ADRA1D-ΔPDZ (human) (UniProt P25100); test: affinity purification with mass spectrometry; TAP/MS; TAP–ADRA1D-ΔPDZ co-transfected with Myc–ADRA1D in HEK293T cells
[12] = target: TAP–ADRA1D (human) (UniProt P25100); test: affinity purification with mass spectrometry; TAP/MS; TAP–ADRA1D transfected in SW480 cells

| Molecule | binding [1] | binding [2] | binding [3] | binding [4] | binding [5] | binding [6] | binding [7] | binding [8] | binding [9] | binding [10] | binding [11] | binding [12] |
| --- | --- | --- | --- | --- | --- | --- | --- | --- | --- | --- | --- | --- |
| dystrophin (DMD) (from UniProt P11532 1-3685) | no binding | no binding | no binding | no binding | no binding | no binding | binds | binds | binds |  |  |  |
| Scribble (SCRIB), endogenous (from UniProt Q14160 1-1655) | no binding | no binding | no binding | no binding |  | no binding | binds | binds | binds | binds | no binding | binds |
| SNTB2 (from UniProt Q13425 1-540) | no binding | no binding | no binding | no binding | no binding | no binding | binds | binds | binds | binds |  | binds |
| utrophin (UTRN) (from UniProt P46939 1-3433) | no binding | no binding | no binding | no binding | no binding | no binding | binds | binds | binds | binds |  | binds |
| B1 | no binding | no binding | no binding | no binding |  | no binding |  |  |  | binds |  | binds |
| B2 | no binding | no binding | no binding | no binding | no binding | no binding |  |  |  | binds |  | binds |
| B3 | no binding | no binding | no binding | no binding | no binding | no binding | binds |  | binds | binds |  | binds |
